# Measurements taken from PubChem BioAssay AID602313 (National Center for Advancing Translational Sciences (NCATS), 2012).
# In all, about 390,000 compounds went through this assay and about 760 (0.19%) were called active. The shares of active, inactive and inconclusive entries below differ from those in the screen. Calls come from the whole dose curve; as a rule, active = well fitted inhibition curve with a large enough effect; inconclusive = small, poorly fitted or top-dose-only effect; inactive = flat fitted curve, though single readings scatter. Potencies beside an inconclusive call are fits to weak or partial responses and may not hold up.
# Assay: qHTS for Inhibitors of Vif-A3F Interactions: qHTS; note: nearly all actives have a fitted effect of over 65% in size; for activity, negative = active: % of control where 0% means no effect
# Conditions: HeLa A3F-eYFP + Vif (tagged APOBEC3F with the HIV-1 protein that degrades it), YFP fluorescence increase; series mostly up to 46.1 µM; activity, negative = active: at the top concentration
# In short: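 HeLa cells stably expressing Vif plus C-terminally eYFP-tagged A3F were seeded, incubated overnight at 37 deg C, dosed with compound, incubated overnight again at 37 deg C. Yellow fluorescence (Ex 488/Em 500-530) reported blocked Vif-mediated A3F-eYFP degradation.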
# Potency is the fitted concentration of half-maximal effect.
Structure (SMILES),"activity, negative = active",Potency
COCCNCCCOc1ccc(C(C)(C)c2ccccc2)cc1,inactive: 0.749%,
Cn1ncc(Cl)c1C(=O)N1CCN(C23CC4CC(CC(C4)C2)C3)CC1,,"inconclusive: 35.5 µM [inhibitor, partial curve, poor fit]"
CCOC(=O)C1=C(COC(=O)COc2ccc(Br)cc2)NC(=O)NC1C (stereo not given),,"inconclusive: 35.5 µM [inhibitor, single point]"
c1coc(CSSCc2ccco2)c1,,"inconclusive: 35.5 µM [inhibitor, single point]"
Cc1ccc(CNc2ccc(-c3nc(-c4ccccn4)no3)cc2[N+](=O)[O-])cc1,,"inconclusive: 6.31 µM [inhibitor, single point]"
Cc1cc(C)cc(Nc2nc3ccccc3c(=O)[nH]2)c1,,"inconclusive: 35.5 µM [inhibitor, single point]"
COc1ccc(-c2nc(N=Nc3ccc(O)cc3)n[nH]2)cc1,,"inconclusive: 3.16 µM [inhibitor, single point]"
Cc1csc(NC(=O)CSc2nnc(-c3ccccc3)o2)n1,,"inconclusive: 22.4 µM [inhibitor, single point]"
N#Cc1ncc(Cc2ccccc2)nc1C#N,,"inconclusive: 22.4 µM [inhibitor, single point]"
COc1cccc2oc(-c3ccco3)cc(=O)c12,,"inconclusive: 5.62 µM [inhibitor, single point]"
c1ccc2sc(NN=C3CCCCCC3)nc2c1,,"inconclusive: 35.5 µM [inhibitor, single point]"
O=C(NCc1ccccc1Cl)c1ccc(Nc2nc3ccccc3n3nnnc23)cc1,,"inconclusive: 20 µM [inhibitor, partial curve, poor fit]"
Cc1cc(C(=O)N/N=C/c2ccc(N(C)C)o2)cs1,,"inconclusive: 28.2 µM [inhibitor, single point]"
COc1cc(/C=N/Nc2ccccc2)ccc1O,,"inconclusive: 25.1 µM [inhibitor, single point]"
O=C(O)c1cc([N+](=O)[O-])ccc1NCCCc1ccccc1,inactive: -2.27%,
O=C(Nc1cccc(-c2nc3ccccc3o2)c1)c1cccc(Br)c1,,"inconclusive: 20 µM [inhibitor, single point]"
COC(=O)CN1C(=S)N(c2ccc(OC)cc2)C(=O)/C1=C/c1ccc(N2CCOCC2)cc1,,"inconclusive: 20 µM [inhibitor, partial curve, poor fit]"
COc1ccccc1CNCc1ccc(C)cc1,inactive: 1.43%,
N#Cc1cc(C(=O)c2cc(Br)ccc2O)cn(Cc2ccccc2)c1=O,,"inconclusive: 25.1 µM [inhibitor, single point]"
O=C(NC(=S)N1CCN(c2ccccc2)CC1)c1ccc(S(=O)(=O)N2CCOCC2)cc1,,"inconclusive: 35.5 µM [inhibitor, single point]"
Cc1[nH]c2ccc(C(=O)NC3CCC(C)CC3)cc2c1C (stereo not given),,"inconclusive: 35.5 µM [inhibitor, single point]"
Cc1ccc(NC(=O)Cn2c(-c3ccc(F)cc3)cnc2SCC(=O)Nc2c(C)cccc2C)cc1,inactive: -27%,
Cc1ccc(Nc2cc(C)c3ccc(O)cc3n2)cc1C,inactive: -1.24%,

Structure (SMILES),"activity, negative = active",Potency
Cc1cc(N2CCCC2=O)ccc1S(=O)(=O)NCCOc1ccccc1,,"inconclusive: 5.62 µM [inhibitor, single point]"
O=C(Cc1cccc2ccccc12)NNC(=O)Nc1ccc(Cl)cc1,,"inconclusive: 12.6 µM [inhibitor, single point]"
c1ccc(Cn2c(-c3ccco3)nc3nc4ccccc4nc32)cc1,,"inconclusive: 35.5 µM [inhibitor, single point]"
NNc1nc(Nc2ccc([N+](=O)[O-])cc2)nc(N2CCCCCC2)n1,inactive: 11.6%,
Cc1ccc(NC(=O)c2cccc(S(=O)(=O)N3CCc4ccccc4C3)c2)nc1,inactive: 5.61%,
CN(C)c1ccc(CCc2ccc(N)cc2)cc1,,"inconclusive: 35.5 µM [inhibitor, single point]"
CC(=O)Nc1ccc(C2=CC(=O)C[C@H](c3ccc(Cl)cc3)C2)cc1,,active: 22.4 µM
CC[n+]1ccccc1/C=C1\Sc2ccc(C)cc2N1C,,active: 22.4 µM
CCOc1ccc2c(c1)C(C)=CC(C)(C)N2S(=O)(=O)c1ccc(C)cc1,,"inconclusive: 28.2 µM [inhibitor, partial curve, poor fit]"
COc1cc(CC(=O)OCc2cccc([N+](=O)[O-])c2)cc(OC)c1OC,,"inconclusive: 1.78 µM [inhibitor, full curve, poor fit]"
CN(CC(=O)NC(=O)NC1CCCCC1)CC(=O)Nc1ccc(OC(F)(F)F)cc1,,"inconclusive: 5.62 µM [inhibitor, single point]"
Cc1ccc(-c2nc3cc(C)ccc3o2)cc1,inactive: -9.91%,
CC(/C=C/c1ccc(N(C)C)cc1)=N\N=C(/N)SC1CC(=O)N(c2ccc(C(=O)O)cc2)C1=O (stereo not given),,active: 25.1 µM
CC(=O)NC(c1cc(Cl)c2cccnc2c1O)C(C)C (stereo not given),,active: 8.91 µM
O=C(N/N=C/C1CC=CCC1)c1ccccc1O (stereo not given),,"inconclusive: 3.55 µM [inhibitor, partial curve, poor fit]"
Cn1nc(C(F)(F)F)cc1Oc1ncc(C(F)(F)F)cc1Cl,inactive: 15.4%,
Cc1ccc(-c2nn(CC(=O)Nc3cccc(C(F)(F)F)c3)c(=O)c3ccccc23)cc1,inactive: 0.49%,
CC(C)c1ccc(NC(=S)NN(c2ccccc2)c2ccccc2)cc1,,"inconclusive: 14.1 µM [inhibitor, partial curve, poor fit]"
COc1ccccc1N1C(=O)C(Cl)=C(Nc2ccccc2O)C1=O,,active: 22.4 µM
COC(=O)c1ccc(COc2ccc(/C=N/NC(N)=S)cc2)o1,,"inconclusive: 20 µM [inhibitor, single point]"
CCc1ccc(NC(=O)C(C)OC(=O)c2cc(=O)[nH]c3ccc(S(=O)(=O)Nc4ccc(F)cc4)cc23)cc1 (stereo not given),,"inconclusive: 35.5 µM [inhibitor, single point]"
COc1ccccc1CNC(=O)c1ccc2nc3[nH]c4ccccc4c3nc2c1,,"inconclusive: 12.6 µM [inhibitor, partial curve, poor fit]"

# Reformatted as tab-separated lines: part of the list above
Structure (SMILES)	activity, negative = active	Potency
O=C(N/N=C/C1CC=CCC1)c1ccccc1O (stereo not given)		inconclusive: 3.55 µM [inhibitor, partial curve, poor fit]
Cn1nc(C(F)(F)F)cc1Oc1ncc(C(F)(F)F)cc1Cl	inactive: 15.4%	
